Reference: PubChem BioAssay AID504444 (National Center for Advancing Translational Sciences (NCATS), 2011)
About 7,500 (2.1%) of roughly 360,000 compounds were called active. Inconclusive means that the source gave no clear call. Such entries were picked first, then a sample of the others. Calls come from the whole dose curve; as a rule, active = well fitted inhibition curve with a large enough effect; inconclusive = small, poorly fitted or top-dose-only effect, or effect the other way; inactive = flat fitted curve, though single readings scatter. A potency beside an inconclusive call is a rough fit, not a confirmed value.

Test: Nrf2 qHTS screen for inhibitors; note: nearly all actives have a fitted effect of over 60% in size
Details: A549 ARE-Fluc reporter, luciferase luminescence, 18-24 h; series mostly up to 46 µM
Procedure, shortened: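 A549 ARE_Fluc cells, 5000/well, 5% FBS OPTI-MEM; compounds in dose-response, 18-24 h at 37 °C/5% CO2; CellTiter-Fluor viability read (Ex 405/Em 525), then BugLite luciferase luminescence = Nrf2 activity.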
Potency is the fitted concentration of half-maximal effect.

| SMILES | Potency |
| --- | --- |
| CCCS/C(N)=N/N=C/c1ccccc1O | inconclusive: 29.1 µM [activator, single point] |
| O=C(O)C(C(=O)/C=C/c1ccco1)=C1SCCS1 | inconclusive: 20.6 µM [activator, single point] |
| COC(=O)c1nc2n(n1)C(c1cc(OC)ccc1OC)C(C(=O)Nc1ccc(C)cc1C)=C(C)N2 (stereo not drawn) | inactive |
| Cc1cc2c(=O)n(C)c(SCC(=O)Nc3ccccc3)nc2s1 | inconclusive: 8.2 µM [activator, partial curve, poor fit] |
| CCN(CCCNS(=O)(=O)c1ccc2c(c1)CCN2C(C)=O)c1cccc(C)c1 | inconclusive: 29.1 µM [falling, single point] |
| Cc1ccc(Cl)cc1N1CCN(CCNC(=O)Nc2ccccc2Cl)CC1 | inconclusive: 5.8 µM [activator, full curve, poor fit] |
| Cc1c(NC(=O)c2ccco2)cccc1-c1nc2cccnc2s1 | inconclusive: 5.17 µM [falling, single point] |
| O=C(CSc1ccccc1)Nc1ccc(-c2nc3ccccc3[nH]2)cc1 | inactive |
| Brc1ccc(/C=N/Nc2ccc3ccccc3n2)cc1 | inconclusive: 9.2 µM [activator, partial curve] |
| CC(=O)Nc1sc(C)c(C)c1CN1CCN(Cc2ccccc2)CC1 | inactive |
| O=C(Nc1ccc(Cl)cc1)c1cc(-c2cccs2)on1 | inactive |
| COc1ccccc1N1CCN(C(=O)CN2C(=O)COc3ccc(S(=O)(=O)N4CCC(C)CC4)cc32)CC1 | inactive |
| Cc1ccc(NC(=O)c2cc(S(=O)(=O)N3CCCCC3)ccc2N2CCOCC2)cc1F | inconclusive: 14.6 µM [falling, partial curve, poor fit] |
| CCc1ccc(-c2nc3c(=O)n(C)c(=O)nc-3n(CC)n2)cc1 | active: 14.6 µM |
| COc1ccc2[nH]c(C(=O)Nc3cccc(C)n3)cc2c1 | inconclusive: 5.8 µM [activator, full curve] |
| CC1(C)Cc2c(cnn2-c2cccc(F)c2)C(NC(=O)c2csnn2)C1 (stereo not drawn) | inconclusive: 1.64 µM [falling, partial curve, poor fit] |
| O=C(NCC1CC1)Nc1ccc(Cl)cc1 | inconclusive: 29.1 µM [activator, single point] |
| CCOc1ccc(NC(=O)CSc2nc3c(oc4ccccc43)c(=O)n2CCOC)cc1 | inconclusive: 6.51 µM [falling, single point] |
| CCNC(=O)NC(=O)C(C)OC(=O)c1oc2ccc(OC)cc2c1C (stereo not drawn) | inactive |
| C=C(C)Cn1c(CN(C)Cc2ccccc2)nc2c1c(=O)n(C)c(=O)n2C | inconclusive: 18.4 µM [falling, partial curve] |
| CCCS(=O)(=O)N1CCN(C(=O)c2ccc(-c3ccccc3)cc2)CC1 | inconclusive: 29.1 µM [falling, single point] |
| C=CCSc1nc2ccccc2n1C(=O)/C=C/c1ccc(OC)c(OC)c1 | inconclusive: 18.4 µM [falling, single point] |

| SMILES | Potency |
| --- | --- |
| O=C(NCCCCNC(=O)c1ccccn1)c1ccccn1 | inconclusive: 14.6 µM [falling, single point] |
| COc1cccc(/C=N/NC(N)=S)c1OCc1ccccc1Cl | inconclusive: 2.31 µM [falling, partial curve, poor fit] |
| Cc1cccc(N2CCN(C(=O)CCS(=O)(=O)c3ccc(Br)cc3)CC2C)c1 (stereo not drawn) | inconclusive: 16.4 µM [falling, single point] |
| Cc1cccc(NC(=O)NC(=O)c2ccccc2)n1 | inconclusive: 20.6 µM [activator, single point] |
| COc1ccc(CCNC(=O)c2coc3ccccc3c2=O)cc1 | active: 13 µM |
| Cc1nn(-c2ccc(N3CCOCC3)nn2)c(C)c1CCC(=O)NCc1ccc(F)cc1 | inconclusive: 29.1 µM [activator, single point] |
| O=C(c1cnn2c(C(F)(F)F)cc(-c3ccc(F)cc3)nc12)N1CCc2ccccc2C1 | inconclusive: 20.6 µM [falling, single point] |
| Cc1cc2nc(-c3ccc(NC(=O)C(C)C)cc3)oc2cc1C | inconclusive: 2.06 µM [activator, full curve] |
| Cc1cc(C)cc(NC(=O)CN2C(=O)c3ccccc3Sc3ncccc32)c1 | inconclusive: 18.4 µM [falling, partial curve, poor fit] |
| Cc1cccc(CNc2ncnc3[nH]ncc23)c1 | inconclusive: 29.1 µM [falling, single point] |
| CCCCN(CC)CCCNC(=O)c1cc2c(=O)[nH]c3ccccc3c2s1 | inconclusive: 16.4 µM [activator, partial curve] |
| CC(C)Cc1nc(Nc2ccc(S(=O)(=O)N3CCCC3)cc2)c2nnn(Cc3ccccc3)c2n1 | inconclusive: 16.4 µM [falling, partial curve, poor fit] |
| Cn1c(=O)n(CC(N)=O)c(=O)c2c1nc1n2CCCN1Cc1ccccc1 | inactive |
| COc1ccc(NC2=NCC(Cc3ccc(Br)cc3)S2)cc1 (stereo not drawn) | inactive |
| Cc1cc(NS(=O)(=O)c2ccc3c(c2)CCC(=O)N3)ccc1F | inconclusive: 23.1 µM [falling, single point] |
| CCOc1ccc(CCNC(=O)COC(=O)c2ccncc2)cc1OCC | inactive |
| N#Cc1ccsc1NC(=O)CN1CCN(c2ccccc2)CC1 | inconclusive: 11.6 µM [activator, partial curve, poor fit] |
| Cc1ccc(CN(Cc2ccco2)C(=O)COc2ccc(C(C)C)cc2)cc1 | active: 18.4 µM |
| CCc1cccc2c(C(=O)COC(=O)c3nn(C)c(=O)c4ccccc34)c[nH]c12 | inconclusive: 8.2 µM [falling, partial curve, poor fit] |
| CCN(CC)c1ccc(NC(=O)c2ccc(Br)o2)c(C)c1 | inconclusive: 0.0366 µM [falling, full curve, poor fit] |
| O=C(CC(C(=O)NCc1ccccc1)c1nc2ccccc2c(=O)[nH]1)NCc1ccccc1 (stereo not drawn) | inconclusive: 32.6 µM [falling, single point] |
